Results taken from paper PMC11804575.
No constants are given. Whether binding was seen depends on the method and setting. Binding seen in cells or lysates may run through a third protein. Some results given as binding are weak or reduced against the parent protein; the word gives no strength.

Chains of the proteins cited; added tags and fusions are not shown. Lines headed by an entry give the natural chain unless they say otherwise; changes in a name come on top. A line that says so, or that is headed by a name, gives the form on record, which may keep a tag or linker.
UniProt P15056: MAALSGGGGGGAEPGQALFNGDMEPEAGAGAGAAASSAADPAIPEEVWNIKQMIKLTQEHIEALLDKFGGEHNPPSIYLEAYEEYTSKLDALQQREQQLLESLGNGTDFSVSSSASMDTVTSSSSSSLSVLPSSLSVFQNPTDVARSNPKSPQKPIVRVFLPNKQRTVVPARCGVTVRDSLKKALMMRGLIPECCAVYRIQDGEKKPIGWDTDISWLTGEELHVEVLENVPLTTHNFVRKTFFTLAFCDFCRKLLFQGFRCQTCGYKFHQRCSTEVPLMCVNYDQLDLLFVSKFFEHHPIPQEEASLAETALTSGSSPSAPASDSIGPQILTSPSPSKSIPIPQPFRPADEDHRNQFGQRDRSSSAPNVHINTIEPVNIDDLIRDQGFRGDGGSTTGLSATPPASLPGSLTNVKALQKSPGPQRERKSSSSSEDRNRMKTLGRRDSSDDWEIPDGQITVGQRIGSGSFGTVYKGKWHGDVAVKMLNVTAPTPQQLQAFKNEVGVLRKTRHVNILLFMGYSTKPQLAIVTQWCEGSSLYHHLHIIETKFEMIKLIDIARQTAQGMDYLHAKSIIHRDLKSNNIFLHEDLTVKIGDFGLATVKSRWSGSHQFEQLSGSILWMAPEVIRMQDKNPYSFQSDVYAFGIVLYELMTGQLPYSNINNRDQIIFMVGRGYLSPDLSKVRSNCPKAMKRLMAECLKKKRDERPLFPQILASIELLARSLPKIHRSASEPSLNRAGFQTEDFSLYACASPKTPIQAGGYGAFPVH
BRAF^ΔNVTAP (P15056, form named): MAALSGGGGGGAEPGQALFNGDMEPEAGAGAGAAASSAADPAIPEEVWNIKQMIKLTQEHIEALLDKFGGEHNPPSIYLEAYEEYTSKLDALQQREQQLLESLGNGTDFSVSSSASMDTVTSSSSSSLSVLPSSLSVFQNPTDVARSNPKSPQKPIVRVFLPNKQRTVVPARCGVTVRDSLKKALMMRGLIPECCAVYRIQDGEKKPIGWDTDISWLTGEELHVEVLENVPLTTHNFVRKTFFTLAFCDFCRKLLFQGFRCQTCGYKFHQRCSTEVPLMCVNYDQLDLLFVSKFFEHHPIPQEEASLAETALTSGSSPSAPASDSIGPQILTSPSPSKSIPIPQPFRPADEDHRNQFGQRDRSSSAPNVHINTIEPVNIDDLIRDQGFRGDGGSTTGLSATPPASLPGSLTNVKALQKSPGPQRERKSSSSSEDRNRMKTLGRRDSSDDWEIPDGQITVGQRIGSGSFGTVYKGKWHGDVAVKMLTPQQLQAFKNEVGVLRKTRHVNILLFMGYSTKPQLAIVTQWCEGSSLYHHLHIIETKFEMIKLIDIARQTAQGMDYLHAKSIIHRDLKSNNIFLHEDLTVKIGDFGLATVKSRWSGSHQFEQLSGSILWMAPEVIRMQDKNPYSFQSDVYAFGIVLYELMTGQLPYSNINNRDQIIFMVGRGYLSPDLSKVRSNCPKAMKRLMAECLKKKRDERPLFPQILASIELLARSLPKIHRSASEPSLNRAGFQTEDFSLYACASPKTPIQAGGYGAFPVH

What was measured:
BRAF^ΔNVTAP (human) = BRAF^ΔNVTAP (human) (UniProt P15056); assay: co-IP; HEK293T expressing HA-BRAF proteins, cultured with the HSP90 inhibitor XL888 (1 μM) or vehicle for 4 hours before lysis; anti-HA precipitation, SDS-PAGE, blot for HSP90 and CDC37; both called XL888-sensitive interactors
BRAF^V600E (human) = BRAF^V600E (human) (UniProt P15056); assay: as above

B1: CDC37 (protein, UniProt Q16543 1-378)
chain: MVDYSVWDHIEVSDDEDETHPNIDTASLFRWRHQARVERMEQFQKEKEELDRGCRECKRKVAECQRKLKELEVAEGGKAELERLQAEAQQLRKEERSWEQKLEEMRKKEKSMPWNVDTLSKDGFSKSMVNTKPEKTEEDSEEVREQKHKTFVEKYEKQIKHFGMLRRWDDSQKYLSDNVHLVCEETANYLVIWCIDLEVEEKCALMEQVAHQTIVMQFILELAKSLKVDPRACFRQFFTKIKTADRQYMEGFNDELEAFKERVRGRAKLRIEKAMKEYEEEERKKRLGPGGLDPVEVYESLPEELQKCFDVKDVQMLQDAISKMDPTDAKYHMQRCIDSGLWVPNSKASEAKEGEEAGPGDPLLEAVPKTGDEKDVSV
BRAF^ΔNVTAP (human)
  binding: binds
BRAF^V600E (human)
  binding: binds
